These results are taken from US20250136937A1, “NOVEL TUMOR-SPECIFIC ANTIGENS FOR COLORECTAL CANCER AND USES THEREOF” (UNIVERSITÉ DE MONTRÉAL, priority 2021, published 2025).

For part of these data: The expression values are mRNA levels of the gene; the protein chain is shown to identify it.

Design in all cases: species or system human
Series [1] has as its system cancer vs matched NAT / pooled mTEC. Briefly: k-mer expression of peptide coding sequences in cancer vs normal (KPHM), TSA identification pipeline. Conditions: for MCS expression in NAT (reason for exclusion): matched NAT of the samples named in Table 7A. The source says:
Identification of TSA candidates. TSA candidates were identified through a stringent TSA identification pipeline. First, MAPs underwent peptide classification in which the peptide sequence accessions were retrieved from the protein database and used to extract the nucleotide sequences of each peptide. RNA-Seq data from each cancer and normal samples were transformed into 24-nucleotide-long k-mer databases with Jellyfish 2.2.3 (using the -C option) and used to query each TSA candidate coding sequence's 24-nucleotide-long k-mer set. The number of reads fully overlapping a given peptide-coding sequence was estimated using the k-mer set's minimum occurrence (kmin), as in general, one k-mer always originates from a single RNA-Seq read. This kmin value was then transformed into several k-mers detected per 10^8 reads sequenced (kphm) using the following formula: kphm=(kmin×108) rtot, with rtot representing the total number of reads sequenced in a given RNA-Seq experiment. Peptides were kept only if their RNA coding sequences were expressed at least 10-fold higher in cancer than in normal (pooled mTEC samples for cell lines, matched NAT for tissues), and expressed <2 KPHM in normal. Subsequent filtering removed any peptides with indistinguishable isoleucine/leucine variants; a peptide with an IL variant was kept only if the most expressed variant met the above-mentioned criteria. The MCSs of the remaining peptides were quantified in RNA-seq data as described above and were kept only if their expression was <8.55 RPHM in mTECs and other normal tissues (GTEx). Genomic localization for each peptide was assigned by mapping reads containing each MCS to the reference genome (GRCh38.99) using BLAT (https://genome.ucsc.edu/cgi-bin/hgBlat, Kent W J. BLAT—the BLAST-like alignment tool. Genome Res. 2002 April; 12 (4): 656-64. PMID: 11932250). Peptides were excluded if the genomic localization was unclear or if they mapped to a hypervariable region (HLA, Ig, or T cell receptor (TCR) genes). Finally, the MS/MS spectra of the remaining candidates were manually validated. Peptides were classified as mTSAs if their amino acid sequence was different from the reference, and if the mutation was not a known germline polymorphism. Peptides were classified as aeTSAs if they were overexpressed ≥10-fold in tumor compared to normal and ≤0.2 KPHM in mTECs (and NAT in the case of tissues) and as TAAs if they were overexpressed ≥10-fold in cancer but the expression in mTECs and/or NAT was >0.2 KPHM. Ultimately, the transcript of origin of each TSA/TAA was attributed by selecting the most highly expressed peptide-overlapping transcript from the kallisto quantification file (see Database Generation section).
Following the identification of over 30,000 unique MAPs, peptide coding sequences were filtered to select those overexpressed at least 10-fold in cancer and expressed <2rphm in pooled mTEC samples or matched NAT, for cell lines and primary samples, respectively. […] The MAP coding sequences in RNA-data were then quantified, and only those that were expressed less than 8.55rphm in mTECs and other normal tissues (GTEx) were kept. Following manual validation of the remaining peptides, peptides were classified as aberrantly expressed TSAs (aeTSAs) if they were overexpressed at least 10-fold in tumor and were expressed <0.2kphm in mTECs (and NAT in the case of tissues). […]

For series [2], the system named is NAT and CRC tissue samples. Briefly: Relative quantification of MAPs by TMT SPS-MS3 with spiked synthetic peptides, CRC vs matched NAT. The note with it: sample S2. On the procedure:
TMT labeling. MAP extracts were resuspended in 200 mM Hepes buffer pH 8.1. 50 μg of TMT reagent (Thermo Fisher Scientific) in anhydrous acetonitrile was added to samples as follows: CRC cell line replicates were labeled with TMT6plex (lot #UG287166) channels TMT6-126-129; Tissue samples were labeled with TMT10plex (lot #UH285228) −126 (NAT) and −127N (tumor). Samples were gently vortexed and reacted at room temperature for 1.5 hours. Samples were then quenched with 50% hydroxylamine for 30 minutes at room temperature, then were diluted with 4% FA/H2O. CRC cell line replicates and individual NAT-tumor pairs were combined. Samples were then desalted on homemade C18 membrane (Empore) columns and stored at −20° C. until injection. To quantify MAPs of interest in primary tissue samples, synthetic peptides at concentrations of 0.75 to 192 fmoles were labeled with TMT 10plex channels −128N, −128C, −129N, −129C, −130N, −130C, −131, while the NAT and CRC tissues were labeled with −126 and 127N, respectively. Note that the channel −127C was left empty to assess contamination between channels.
Relative quantification. To relatively quantify MAPs of interest in primary tissue samples, synthetic peptides at concentrations of 10, 100, or 1000 fmol labeled with TMT 10plex-129N, 130N, and 131N, respectively, were spiked into remaining purified MAPs from NAT and CRC tissue samples labeled with TMT10plex-126 and 127N, respectively. Note that the channel TMT 10plex-127C was left empty to assess contamination. Samples were analyzed with an Orbitrap Fusion Tribrid spectrometer (Thermo Fisher Scientific) in positive ion mode with Nanoflex source at 2.4 kV. For synchronous precursor selection MS3 (SPS-MS3), full MS scans were acquired with a range of 300-1000 m/z, Orbitrap resolution of 120 000, automatic gain control (AGC) of 5.0e5, and a maximum injection time of 50 ms, using an inclusion list for the peptides of interest. A 3s top speed approach for MS2 was used in the ion trap, with an isolation window of 0.4m/z, collision induced dissociation of 35%, a ‘normal’ ion trap scan rate mode, 2.0e4 AGC target, and 50 ms maximum injection time. This was followed by the selection of eight synchronous precursor ions for MS3 acquisition, which was done with a scan range of 110-500 m/z, Orbitrap resolution of 50 000, AGC of 1.0e5, maximum injection time of 300 ms, an isolation window of 2.0m/z, and 65% HCD collision energy. LC-MS instrument was controlled using Xcalibur version 4.4 (Thermo Fisher Scientific, Inc). Error tolerances for precursor mass and fragment ions were set to 10.0 ppm and 0.5 Da, respectively. A non-specific digest mode was used. TMT10plex was set as a fixed PTM, and variable modifications included phosphorylation (STY), Oxidation (M), Deamidation (NQ), and TMT10plex STY. For quantification, PSMs were filtered to exclude those with contamination in the TMT10plex-127C channel, and to select those within the 70th intensity percentile. MS2 precursor profiles and intensity profiles of all relevant channels were manually inspected to select peptides for quantification. Intensity ratios for each peptide were calculated using the average TMT10plex-127N and TMT10plex-126 intensities of good quality PSMs.
Experimental Design and Statistical Rationale. To effectively elucidate the MHC I immunopeptidome of colorectal cancer, 4 CRC cell lines were selected and 6 samples from human subjects consisting of both matched tumor and normal adjacent tissue (NAT) were acquired. […] Since no matched samples were available for cell lines, a pool of 6 mTEC samples was used in the creation of global cancer databases, to obtain a wide berth of approximate normal RNA expression. […] For t-tests, f-tests were performed to determine whether the dataset had significant variation; if yes, then the t-test assuming variation was used, and otherwise the t-test assuming no variation was used. […]

Series [3] concerns healthy tissues (GTEx) and mTECs. Briefly: Quantification of MAP coding sequences in RNA-Seq data of normal tissues (GTEx, mTEC), RPHM. The text has this:
Quantification of MAP coding sequences in RNA-Seq data. MAP coding sequences (MCSs) were quantified in RNA-seq data as previously described (31). Briefly, MCSs were reverse translated into all possible nucleotide sequences with an in-house python script (deposited on Zenodo at DOI: 3739257). The nucleotide sequences were then mapped onto the genome with GSNAP (32) to determine all possible genomic locations able to code for a given MAP. MCSs were also mapped onto the transcriptome to account for MAPs overlapping splice sites, and portions of the transcriptome corresponding to these MAPs were then also mapped onto the reference genome with GSNAP. For MAPs of interest, genomic alignment of all reads containing the MCS was performed. […] The number of reads containing the MCSs at their respective genomic locations in each desired RNA-Seq sample (such as CRC and NAT, GTEx, or TCGA samples), aligned on the reference genome with STAR, was summed. Lastly, all read counts for a given MAP were summed and normalized on the total number of reads sequenced in each sample of interest to obtain a reads-per-hundred-million (RPHM) count.
Identification of TSA candidates. […] The number of reads fully overlapping a given peptide-coding sequence was estimated using the k-mer set's minimum occurrence (kmin), as in general, one k-mer always originates from a single RNA-Seq read. […]

With “RLASRPLLL (listed as Homo sapiens) [Loffler et al. 2018 vaccine candidate, B*07; excluded here]”, the “FC between cancer and NAT (reason for exclusion)” value in series [1] (sample S5) was “FC < 10”.
For the sequence “RLAEPSQMLK (listed as Homo sapiens) [Loffler et al. 2018 vaccine candidate requiring further validation, A*03; excluded here]”, the “MCS expression in NAT (reason for exclusion)” value (shortened to “MCS expression in NAT”) in series [1] is “expression > 2 KPHM”.
On to “RIGGVGVEK (listed as Homo sapiens) [aeTSA, LY6G6F-LY6G6D exon frameshift, S2; predicted HLA-A*03:02]”, for which the Endogenous sample ratio in series [2] (CRC vs matched NAT) is 1.965. In series [2] (TMT127N (CRC) / TMT126 (NAT)), the “SPS-MS3 ratio (127N/126)” value is 6.740. In addition, in series [3] (testis, threshold 8.55 rphm), the “mean expression of the peptide-coding sequence in testis (GTEx)” value is given as “above 8.55 rphm”.
On to “SPKATGVFTTL (listed as Homo sapiens) [Loffler et al. 2018 vaccine candidate requiring further validation, B*07; excluded here]”, for which, in series [1], the “MCS expression in NAT” value is reported as “expression > 2 KPHM”.
For “SVLTQPPSV (listed as Homo sapiens) [excluded here]”, the “MCS expression in NAT” value in series [1] is “expression > 2 KPHM”.
The same measure, in the same setting: with “YRNSYEIEY (listed as Homo sapiens) [Loffler et al. 2018 vaccine candidate, C*07; excluded here]” the entry was “expression > 2 KPHM”.
On to “APTPARPVL (listed as Homo sapiens) [Loffler et al. 2018 vaccine candidate requiring further validation, B*07; excluded here, reference compound]”, for which the “MCS expression in mTEC (reason for exclusion)” value in series [3] (mTEC, peptide found in sample S1) is “expression 8.55 RPHM”.
